In PubChem BioAssay AID2685 (National Center for Advancing Translational Sciences (NCATS), 2010):
The list shows a part of the results. Further columns of the screen follow, without active or inactive calls. The list favours compounds with an active or inconclusive main result. Potencies come from curve fits of mixed quality, noted in brackets.

Assay: qHTS Assay for Lipid Storage Modulators in Drosophila S3 Cells;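 for cell number change: cells counted by Cell Tracker Red CMTPX staining in the red channel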
Details: BODIPY lipid droplet fluorescence, 18-24 h; for cell number change: measured here: cell count max response, cells fed with added oleic acid
In short: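 Laser-scanning cytometry quantifies lipid droplet accumulation (500–530 nm total intensity; droplet/cell object ratio) in oleic acid-fed (400 uM added) Drosophila S3 cells treated with a concentration series. 20 uM Triacsin C defined 100% inhibition.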

[1] = measured here: cell number channel AC50, cells fed with added oleic acid
[2] = measured here: lipid fluorescence (Fed channel) AC50, cells fed with added oleic acid

Compound | cell number change [%] | AC50 [1] | AC50 [2]
COC(=O)Cn1cnc2c(C#N)c3n(c2c1=O)CCCC3 | 24.6 |  | 
CCc1ccc(-n2nc3ccc(NC(=O)c4ccc5c(c4)OCO5)cc3n2)cc1 | -37.1 | 3.66 µM [falling, partial curve] | 6.51 µM [falling, single point]
COC(=O)c1ccc(S(=O)(=O)N2CCC(C(N)=O)CC2)n1C | -2.17 |  | 0.00461 µM [falling, full curve, poor fit]
CCCCn1c(N)c(-c2nc3ccccc3s2)c2c([N+](=O)[O-])nn(CC)c(=O)c21 | -7.98 | 0.0651 µM [rising, full curve, poor fit] | 6.51 µM [rising, single point]
C=C(C)[C@@H]1CC=C(CN2CCN(Cc3ccccc3)CC2)CC1 | -57 | 25.9 µM [falling, single point] | 18.4 µM [falling, single point]
COc1ccc(Cn2c(=O)[nH]c3cc(C(=O)NC4CCN(Cc5ccccc5)CC4)ccc32)cc1 | -20.9 |  | 0.231 µM [falling, full curve, poor fit]
O=C(Oc1cccc(C(=S)N2CCOCC2)c1)c1ccc([N+](=O)[O-])cc1[N+](=O)[O-] | -6.25 |  | 
CC1Cc2ccccc2N1C(=O)COC(=O)CNC(=O)c1ccc(Br)o1 (stereo not given) | 6.02 |  | 6.51 µM [rising, partial curve, poor fit]
O=C(/C=C/c1cccs1)N1CCN(Cc2ccc3c(c2)OCO3)CC1 | -58.5 | 29.1 µM [falling, single point] | 2.59 µM [rising, partial curve]
COc1ccccc1OCCNC(=O)C(CCSC)NC(=O)COc1ccccc1 (stereo not given) | 14.1 | 0.00461 µM [rising, full curve, poor fit] | 
COc1cc2c(cc1OC)C(COc1ccccc1OC)N(C(=O)C(C)C)CC2 (stereo not given) | -23.4 |  | 25.9 µM [falling, partial curve]
Cc1ccc(C(=O)Nc2ccc(S(=O)(=O)Nc3cnc4ccccc4n3)cc2)cc1 | -9.68 |  | 29.1 µM [falling, single point]
Cc1nnc(NC(=O)C2CCCN2C(=O)Nc2ccccc2)s1 (stereo not given) | 12.4 |  | 3.26 µM [rising, full curve]
CC(=O)Nc1ccc(NC(=O)C(C)OC(=O)/C=C/c2cn(-c3ccccc3)nc2-c2cccnc2)cc1 (stereo not given) | -30.9 |  | 29.1 µM [falling, single point]
CS(=O)(=O)c1ccc(Cl)c(C(=O)Nc2ccc3nc(N4CCOCC4)sc3c2)c1 | 32.5 | 29.1 µM [rising, single point] | 23.1 µM [falling, single point]
CC(=O)c1cc(C(=O)NC2CCCc3c2cnn3-c2cc(C)cc(C)c2)[nH]n1 (stereo not given) | -30.1 | 3.66 µM [falling, full curve] | 0.291 µM [falling, full curve]
Cc1nn(Cc2ccccc2)c(C)c1NC(=O)CSc1nc(C2CC2)nc2c1cnn2-c1ccccc1 |  | 0.411 µM [rising, full curve] | 0.291 µM [rising, full curve]
CC(NCc1ccc(-c2ccccc2)cc1)C(O)c1ccccc1 (stereo not given) | -65.4 | 29.1 µM [falling, single point] | 
COc1cc(C(=O)N2CCc3ccccc32)c([N+](=O)[O-])cc1OC | 22.3 |  | 
COc1cccc(OC)c1-c1nnc(-c2cn(C)c3ccccc23)o1 | 31.9 | 0.517 µM [rising, full curve, poor fit] | 

Compound | cell number change [%] | AC50 [1] | AC50 [2]
COc1cc2c(cc1NC(=O)c1ccccc1F)CCCC2 | 7.11 |  | 2.59 µM [rising, partial curve]
CCN=C1S/C(=C\c2cn(C(C)=O)nc2-c2ccccc2)C(=O)N1CC | -19.2 |  | 32.6 µM [falling, single point]
CC(=O)c1ccc(OCCCC(=O)OCC(=O)N2CCN(c3ccccc3)CC2)cc1 | 13.2 |  | 6.51 µM [rising, single point]
O=C(Nn1c(-c2ccncc2)nc2ccccc2c1=O)c1ccc(Br)cc1 | -20.9 | 0.291 µM [falling, full curve, poor fit] | 
CCOC(=O)Cc1c(Cl)c2ccccc2[nH]c1=O | -13.1 | 1.16 µM [falling, single point] | 1.46 µM [falling, single point]
O=C(NCCCN1CCCC1=O)C(=O)NCC1OCCCN1S(=O)(=O)c1cc(F)ccc1F (stereo not given) |  | 0.164 µM [rising, full curve, poor fit] | 18.4 µM [rising, single point]
Cc1ccc(NC(=O)NC(=O)CSc2nnc(-c3ccc(Cl)cc3Cl)n2N)c(C)c1 | -34.4 | 25.9 µM [falling, single point] | 25.9 µM [falling, single point]
COc1ccc(OCC(=O)NS(=O)(=O)c2ccc(Cl)cc2)cc1 | 18.3 |  | 
COC(=O)c1cc(COC(=O)c2ccc(OC)c(S(=O)(=O)N3CCCC3)c2)oc1C | 8.55 |  | 
O=C(Nc1ccc2c(c1)C(=O)NC2=O)c1cccc(C(F)(F)F)c1 | 8.38 |  | 16.4 µM [rising, single point]
CN(C)C(=S)NC(=O)C12CC3(C)CC(C)(CC(C)(C3)C1)C2 | -14.4 |  | 2.06 µM [rising, partial curve]
COc1ccc(N2C(=O)CSC2c2ccc([N+](=O)[O-])cc2)cc1 (stereo not given) | 17.4 |  | 16.4 µM [rising, single point]
Cc1ccc(NC(=O)C2CCN(S(=O)(=O)c3ccc(F)cc3)CC2)cc1 | 9.81 |  | 29.1 µM [rising, single point]
Cc1ccc(NC(=O)c2c3c(nc4ccccc24)CCC3)cc1 | 22.2 |  | 
Cc1ccc(CN(C)C(=O)COC(=O)CSc2ccc(C(N)=O)cc2[N+](=O)[O-])cc1 | -8.46 |  | 0.00461 µM [rising, full curve, poor fit]
O=S(=O)(Nc1cccc(-c2ccc(N3CCCCCC3)nn2)c1)c1ccc(F)cc1 | 26.9 |  | 
COc1ccc(C)cc1N(C(=O)CNC(=O)c1ccco1)C(C(=O)NCC1CCCO1)c1ccccc1 (stereo not given) | 1.3 |  | 6.51 µM [falling, single point]
CCOC(=O)c1cnc(SC)nc1Oc1cccc(NS(=O)(=O)c2ccc(C)cc2)c1 | 25.6 |  | 0.517 µM [rising, full curve]
CCCCNC(=O)c1onc(CCl)c1C(=O)OC | 19.5 |  | 5.8 µM [rising, full curve, poor fit]
C=CCn1c(C)cc(C(=O)COC(=O)/C=C/c2ccc(OC)cc2)c1C | 108 | 11.6 µM [rising, partial curve] | 13 µM [rising, partial curve]

Compound | cell number change [%] | AC50 [1] | AC50 [2]
CCOC(=O)c1nsnc1NCCSC(=N)N | -11.1 | 0.0731 µM [falling, full curve, poor fit] | 
Cc1ccc(C)c(S(=O)(=O)N2CCCCC2CCNC(=O)C(=O)NCc2cccnc2)c1 (stereo not given) | 24.3 |  | 
CCOC(=O)c1cc(C(=O)OCC)c(=O)[nH]c1N1CCCC1 | -7.01 |  | 
O=C(Cn1cnc2ccccc2c1=O)c1cccs1 | 7.06 |  | 29.1 µM [rising, single point]
COc1ccc(OCCCNCCc2ccccc2)cc1 | 89.5 | 4.61 µM [falling, partial curve] | 4.61 µM [falling, partial curve]
CC(C)NC(=O)C1CCN(C2CCN(Cc3cn[nH]c3-c3ccccc3)CC2)CC1 | 16 | 2.91 µM [falling, single point] | 5.8 µM [falling, single point]
CC1CCCC(C)N1C(=O)COC(=O)c1c[nH]c2ccccc12 (stereo not given) | -10 |  | 0.164 µM [falling, full curve]
COCc1nc(-c2cc(Br)ccc2OC)no1 | 84.3 | 20.6 µM [rising, partial curve] | 2.59 µM [rising, partial curve]
O=C(COC(=O)Cc1ccc(Br)cc1)NC1CC1 | -5.29 | 2.91 µM [falling, single point] | 23.1 µM [rising, partial curve, poor fit]
CCN(Cc1ccncc1)C(=O)c1ccco1 | -8.84 |  | 
CCCCn1c(CNC(C)=O)nc2ccccc21 | -120 | 25.9 µM [falling, partial curve] | 20.6 µM [falling, partial curve]
CCOc1ccc(C(=O)Nc2cccc(-n3cnnn3)c2)cc1OCC | -21.4 |  | 
Oc1c(C(c2ccccn2)N2CCC(Cc3ccccc3)CC2)cc(Cl)c2cccnc12 (stereo not given) | -73.5 | 20.6 µM [falling, single point] | 18.4 µM [falling, single point]
CCOC(=O)c1ccc(N/N=C/c2cc(Br)cc([N+](=O)[O-])c2O)cc1 | -9.56 |  | 20.6 µM [falling, single point]
CC(=O)c1cccc(NC=C2C(=O)OC3(CCCCC3)OC2=O)c1 | 27.3 |  | 32.6 µM [rising, single point]
CCOc1ccc(CCNC(=O)COC(=O)c2ccco2)cc1OCC | -64.9 | 18.4 µM [falling, single point] | 29.1 µM [falling, single point]
COc1ccc(NC(=O)CN(C)C(=O)CN2C(=O)NC3(CCCC3)C2=O)cc1 | -16.5 |  | 
O=C(Nc1nc2ccsc2c(=O)s1)C1CCC1 | 18.6 |  | 29.1 µM [rising, single point]

Already shown: 4 of the compounds above.
Compound | cell number change [%] | AC50 [1] | AC50 [2]
COc1ccc(OCCCNCCc2ccccc2)cc1 | 89.5 | 4.61 µM [falling, partial curve] | 4.61 µM [falling, partial curve]
CC(C)NC(=O)C1CCN(C2CCN(Cc3cn[nH]c3-c3ccccc3)CC2)CC1 | 16 | 2.91 µM [falling, single point] | 5.8 µM [falling, single point]
CC1CCCC(C)N1C(=O)COC(=O)c1c[nH]c2ccccc12 (stereo not given) | -10 |  | 0.164 µM [falling, full curve]
COCc1nc(-c2cc(Br)ccc2OC)no1 | 84.3 | 20.6 µM [rising, partial curve] | 2.59 µM [rising, partial curve]
